Results: the supplement of paper PMC8256030
Where “and” joins values, the source holds several entries; their conditions need not be identical. Equal entries are not always repeated. Structures can show the parent of a compound that is named as a salt. This is one part of the list. Single values are uncertain here, since repeats match poorly.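 HEK293T cells were given each compound shortly before transfection with a reporter in which red mCherry is followed by the SARS-CoV-2 frameshift element and then GFP in the −1 frame, so GFP appears only after frameshifting.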

Assays:
[1] = test system: HEK293T; test: percent viability (nuclei count) relative to control; higher = more viable cells; conditions: 10 µM; 24 h
[2] = test system: SARS-CoV-2 -1 PRF reporter mCherry-FSE-GFP(-1); test: mCherry (red) intensity as percent of control; higher = higher upstream reporter expression; conditions: 10 µM; 24 h; HEK293T
[3] = test system: SARS-CoV-2 -1 PRF reporter mCherry-FSE-GFP(-1); test: percent effect, decrease of GFP/mCherry ratio (-1 PRF reporter) relative to controls; higher = stronger frameshift inhibition; conditions: 10 µM; 24 h; HEK293T

Compound | percent viability [1] | mCherry [2] | percent effect [3]
CN=C1CN(O)C(c2ccccc2)=c2cc(Cl)ccc2=N1 [chlordiazepoxide] | 175% | 93.8% | 1.99%
CCC1(CCC(C)C)C(=O)NC(=O)NC1=O [amobarbital] | 223% | 95.5% | -1.22%
C#CC(C)(O)CC (configuration not stated) | 77.3% | 112% | -2.21%
CC(C)(C)NCC(O)c1cc(Cl)c(N)c(Cl)c1 (configuration not stated) [clenbuterol] | 186% and 315% | 110% and 91% | 0.528% and -0.775%
O=[N+]([O-])OCC(CO[N+](=O)[O-])O[N+](=O)[O-] | 172% | 106% | -4.71%
C[C@]12C=CC(=O)C=C1CC[C@@H]1[C@@H]2CC[C@@]2(C)[C@H]1CC[C@]2(C)O [metandienone] | 358% | 81% | -4.23%
C=C[C@H]1CN2CC[C@H]1C[C@H]2[C@H](OC(=O)OCC)c1ccnc2ccc(OC)cc12 | 327% | 101% | -0.236%
Cc1ccc(-n2nccn2)c(C(=O)N2CCN(c3nc4cc(Cl)ccc4o3)CC[C@H]2C)c1 [Suvorexant] | 229% | 103% | 0.699%
CN1CCCC(=C(c2cccs2)c2cccs2)C1 [tipepidine] | 175% | 84.5% | -4.31%
CC[C@H](C(N)=O)N1CCCC1=O [(R)-(+)-Etiracetam] | 253% | 104% | -2.45%
FC(F)(F)c1cccc(C2CNCCO2)c1 (configuration not stated) [flumexadol] | 350% | 108% | 2.56%
CCC(C)C(C)(COC(N)=O)COC(N)=O (configuration not stated) [mebutamate] | 150% | 96.5% | -2.26%
CCCCC1C(=O)NC(=O)N(C2CCCCC2)C1=O (configuration not stated) [bucolome] | 158% | 85% | -2.9%
CCOP(=O)(OCC)ON1C(=O)c2cccc3cccc(c23)C1=O [naftalofos] | 191% | 75.2% | -4.7%
C[C@]1(O)CC[C@H]2[C@@H]3CCC4=CC(=O)CCC4=C3C=C[C@@]21C [metribolone] | 150% | 71.2% | -9.14%
C[C@]12N[C@H](Cc3ccccc31)c1ccccc12 [dizocilpine] | 135% | 73.5% | -12%
C[N+]1(C)CCCCC1COC(=O)C(O)(c1ccccc1)c1ccccc1 (configuration not stated) [bevonium] | 373% | 72.1% | -1.92%

2 records drawn at random from those above:
Compound | percent viability [1] | mCherry [2] | percent effect [3]
C[C@]12N[C@H](Cc3ccccc31)c1ccccc12 [dizocilpine] | 135% | 73.5% | -12%
CCC(C)C(C)(COC(N)=O)COC(N)=O (configuration not stated) [mebutamate] | 150% | 96.5% | -2.26%

Remaining list, next part.

Compound | percent viability [1] | mCherry [2] | percent effect [3]
CCOC(=O)CC(SP(=S)(OC)OC)C(=O)OCC (configuration not stated) | 172% | 106% | -3.38%
CCC(C)(CC)OC(N)=O [emylcamate] | 46.4% | 85.1% | -10.8%
C[C@]12CC[C@H](O)CC1=CC[C@@H]1[C@@H]2CC[C@]2(C)C(=O)CC[C@@H]12 | 319% | 104% | -1.1%
CCCOC(=O)Cc1ccc(OCC(=O)N(CC)CC)c(OC)c1 [propanidid] | 466% | 61.6% | -0.373%
C[C@H]1CCC[C@@H](O)CCCCCc2cc(O)cc(O)c2C(=O)O1 [taleranol] | 180% | 85.8% | 0.0872%
CN1CC[C@]23c4c5ccc(O)c4O[C@H]2C(=O)CC[C@@]3(O)[C@H]1C5 [oxymorphone] | 197% | 98.3% | 0.8%
CC(=O)NC1CCSC1=O (configuration not stated) [citiolone] | 294% | 94.1% | -0.524%
O=C(C[S+]([O-])C(c1ccccc1)c1ccccc1)NO (configuration not stated) [adrafinil] | 260% | 93.6% | -4.79%
CCC1(C2=NCCN2)Cc2ccccc2O1 (configuration not stated) [efaroxan] | 148% | 99.9% | -1.58%
CN1C[C@H](C(=O)N[C@]2(C)O[C@@]3(O)[C@@H]4CCCN4C(=O)[C@H](Cc4ccccc4)N3C2=O)C=C2c3cccc4[nH]cc(c34)C[C@H]21 [Ergotamine] | 202% and 292% | 81.3% and 84.5% | -5.07% and -2.85%
CCCN1CCC[C@@H](c2cccc(O)c2)C1 [preclamol] | 140% | 94.3% | -3.93%
C[C@@H]1C[C@@]2(C)[C@@H](CC[C@@H]3[C@@H]2CC[C@]2(C)[C@@H](O)CC[C@@H]32)CC1=O [drostanolone] | 258% | 98.2% | -3.69%
NC1CCCC1c1ccccc1 (configuration not stated) [cypenamine] | 223% | 102% | -0.288%
COc1cc2c(c(OC)c1OC)-c1ccc(OC)c(=O)cc1[C@@H](NC(C)=O)CC2 | 11.9% | 137% | -8.67%
O=C(CC1NCCCC1O)Cn1cnc2cc(Br)c(Cl)cc2c1=O (configuration not stated) [Halofuginone] | 34% | 763% | -25.4%
C[C@@H](N)Cc1ccccc1 [levamfetamine] | 231% | 88.6% | -1.28%
c1ccc2c(c1)OCC(C1=NCCN1)O2 (configuration not stated) [Idazoxan·HCl] | 235% | 80.3% | -3.45%
